Measured values reported in patent publication US20200282021A1.
Results are given in words; binding and its absence hold for the method and conditions named. Some entries that bind do so weakly or less than the wild type.

Chains of the proteins cited; added tags and fusions are not shown. Residues count along the entry.
UniProt P43220, residues 24-145: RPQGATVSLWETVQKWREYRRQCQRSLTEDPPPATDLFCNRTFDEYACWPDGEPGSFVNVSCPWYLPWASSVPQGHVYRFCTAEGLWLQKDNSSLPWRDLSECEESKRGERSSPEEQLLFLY

How the values were obtained:
[1] = target: human GLP-1 receptor (Abcam) (human) (UniProt P43220); assay: SPR, human GLP-1 receptor immobilised
[2] = target: human GLP-1 receptor (Abcam) (human) (UniProt P43220); assay: BLI, legend of FIG. 1(H)
[3] = target: human GLP-1 receptor (Abcam) (human) (UniProt P43220); assay: SPR, legend of FIG. 1(B)-1(G)

binding [1]: binds
binding [2]: binds
binding [3]: binds
B1: GLP-1(A2G)-hyFc9 (Fc fusion)
chain: HGEGTFTSDVSSYLEGQAAKEFIAWLVKGRGAKATTAPATTRNTGRGGEEKKKEKEKEEQEERETKTPECPSHTQPLGVFLFPPKPKDTLMISRTPEVTCVVVDVSQEDPEVQFNWYVDGVEVHNAKTKPREEQFNSTYRVVSVLTVLHQDWLNGKEYKCKVSNKGLPSSIEKTISKAKGQPREPQVYTLPPSQEEMTKNQVSLTCLVKGFYPSDIAVEWESNGQPENNYKTTPPVLDSDGSFFLYSRLTVDKSRWQEGNVFSCSVMHEALHNHYTQKSLSLSLGK
modifications: O-glycosylation at the IgD hinge region (positions not stated)
